Assay results reported in patent US20220074941A1, “HSP90 COMBINATION THERAPY” (Sloan-Kettering Institute for Cancer Research, priority 2011, published 2022).

B1: CYFIP1 (protein, UniProt Q7L576 1-1253, looked up)
Cytoplasmic FMR1-interacting …: MAAQVTLEDALSNVDLLEELPLPDQQPCIEPPPSSLLYQPNFNTNFEDRNAFVTGIARYIEQATVHSSMNEMLEEGQEYAVMLYTWRSCSRAIPQVKCNEQPNRVEIYEKTVEVLEPEVTKLMNFMYFQRNAIERFCGEVRRLCHAERRKDFVSEAYLITLGKFINMFAVLDELKNMKCSVKNDHSAYKRAAQFLRKMADPQSIQESQNLSMFLANHNKITQSLQQQLEVISGYEELLADIVNLCVDYYENRMYLTPSEKHMLLKVMGFGLYLMDGSVSNIYKLDAKKRINLSKIDKYFKQLQVVPLFGDMQIELARYIKTSAHYEENKSRWTCTSSGSSPQYNICEQMIQIREDHMRFISELARYSNSEVVTGSGRQEAQKTDAEYRKLFDLALQGLQLLSQWSAHVMEVYSWKLVHPTDKYSNKDCPDSAEEYERATRYNYTSEEKFALVEVIAMIKGLQVLMGRMESVFNHAIRHTVYAALQDFSQVTLREPLRQAIKKKKNVIQSVLQAIRKTVCDWETGHEPFNDPALRGEKDPKSGFDIKVPRRAVGPSSTQLYMVRTMLESLIADKSGSKKTLRSSLEGPTILDIEKFHRESFFYTHLINFSETLQQCCDLSQLWFREFFLELTMGRRIQFPIEMSMPWILTDHILETKEASMMEYVLYSLDLYNDSAHYALTRFNKQFLYDEIEAEVNLCFDQFVYKLADQIFAYYKVMAGSLLLDKRLRSECKNQGATIHLPPSNRYETLLKQRHVQLLGRSIDLNRLITQRVSAAMYKSLELAIGRFESEDLTSIVELDGLLEINRMTHKLLSRYLTLDGFDAMFREANHNVSAPYGRITLHVFWELNYDFLPNYCYNGSTNRFVRTVLPFSQEFQRDKQPNAQPQYLHGSKALNLAYSSIYGSYRNFVGPPHFQVICRLLGYQGIAVVMEELLKVVKSLLQGTILQYVKTLMEVMPKICRLPRHEYGSPGILEFFHHQLKDIVEYAELKTVCFQNLREVGNAILFCLLIEQSLSLEEVCDLLHAAPFQNILPRVHVKEGERLDAKMKRLESKYAPLHLVPLIERLGTPQQIAIAREGDLLTKERLCCGLSMFEVILTRIRSFLDDPIWRGPLPSNGVMHVDECVEFHRLWSAMQFVYCIPVGTHEFTVEQCFGDGLHWAGCMIIVLLGQQRRFAVLDFCYHLLKVQKHDGKDEIIKNVPLKKMVERIRKFQILNDEIITILDKYLKSGDGEGTPVEHVRCFQPPIHQSLASS
B2: ILF3 (protein, UniProt Q12906 1-894, looked up)
Interleukin enhancer-binding …: MRPMRIFVNDDRHVMAKHSSVYPTQEELEAVQNMVSHTERALKAVSDWIDEQEKGSSEQAESDNMDVPPEDDSKEGAGEQKTEHMTRTLRGVMRVGLVAKGLLLKGDLDLELVLLCKEKPTTALLDKVADNLAIQLAAVTEDKYEILQSVDDAAIVIKNTKEPPLSLTIHLTSPVVREEMEKVLAGETLSVNDPPDVLDRQKCLAALASLRHAKWFQARANGLKSCVIVIRVLRDLCTRVPTWGPLRGWPLELLCEKSIGTANRPMGAGEALRRVLECLASGIVMPDGSGIYDPCEKEATDAIGHLDRQQREDITQSAQHALRLAAFGQLHKVLGMDPLPSKMPKKPKNENPVDYTVQIPPSTTYAITPMKRPMEEDGEEKSPSKKKKKIQKKEEKAEPPQAMNALMRLNQLKPGLQYKLVSQTGPVHAPIFTMSVEVDGNSFEASGPSKKTAKLHVAVKVLQDMGLPTGAEGRDSSKGEDSAEETEAKPAVVAPAPVVEAVSTPSAAFPSDATAEQGPILTKHGKNPVMELNEKRRGLKYELISETGGSHDKRFVMEVEVDGQKFQGAGSNKKVAKAYAALAALEKLFPDTPLALDANKKKRAPVPVRGGPKFAAKPHNPGFGMGGPMHNEVPPPPNLRGRGRGGSIRGRGRGRGFGGANHGGYMNAGAGYGSYGYGGNSATAGYSQFYSNGGHSGNASGGGGGGGGGSSGYGSYYQGDNYNSPVPPKHAGKKQPHGGQQKPSYGSGYQSHQGQQQSYNQSPYSNYGPPQGKQKGYNHGQGSYSYSNSYNSPGGGGGSDYNYESKFNYSGSGGRSGGNSYGSGGASYNPGSHGGYGGGSGGGSSYQGKQGGYSQSNYNSPGSGQNYSGPPSSYQSSQGGYGRNADHSMNYQYR
B3: MTA2 (protein, UniProt O94776 1-668, looked up)
Metastasis-associated protein …: MAANMYRVGDYVYFENSSSNPYLVRRIEELNKTANGNVEAKVVCLFRRRDISSSLNSLADSNAREFEEESKQPGVSEQQRHQLKHRELFLSRQFESLPATHIRGKCSVTLLNETDILSQYLEKEDCFFYSLVFDPVQKTLLADQGEIRVGCKYQAEIPDRLVEGESDNRNQQKMEMKVWDPDNPLTDRQIDQFLVVARAVGTFARALDCSSSIRQPSLHMSAAAASRDITLFHAMDTLQRNGYDLAKAMSTLVPQGGPVLCRDEMEEWSASEAMLFEEALEKYGKDFNDIRQDFLPWKSLASIVQFYYMWKTTDRYIQQKRLKAAEADSKLKQVYIPTYTKPNPNQIISVGSKPGMNGAGFQKGLTCESCHTTQSAQWYAWGPPNMQCRLCASCWIYWKKYGGLKTPTQLEGATRGTTEPHSRGHLSRPEAQSLSPYTTSANRAKLLAKNRQTFLLQTTKLTRLARRMCRDLLQPRRAARRPYAPINANAIKAECSIRLPKAAKTPLKIHPLVRLPLATIVKDLVAQAPLKPKTPRGTKTPINRNQLSQNRGLGGIMVKRAYETMAGAGVPFSANGRPLASGIRSSSQPAAKRQKLNPADAPNPVVFVATKDTRALRKALTHLEMRRAARRPNLPLKVKPTLIAVRPPVPLPAPSHPASTNEPIVLED
B4: TRMT112 (protein, UniProt Q9UI30 1-125, looked up)
Multifunctional …: MKLLTHNLLSSHVRGVGSRGFPLRLQATEVRICPVEFNPNFVARMIPKVEWSAFLEAADNLRLIQVPKGPVEGYEENEEFLRTMHHLLLEVEVIEGTLQCPESGRMFPISRGIPNMLLSEEETES
B5: PPP5C (protein, UniProt P53041 2-499, looked up)
Serine/threonine-protein …: AMAEGERTECAEPPRDEPPADGALKRAEELKTQANDYFKAKDYENAIKFYSQAIELNPSNAIYYGNRSLAYLRTECYGYALGDATRAIELDKKYIKGYYRRAASNMALGKFRAALRDYETVVKVKPHDKDAKMKYQECNKIVKQKAFERAIAGDEHKRSVVDSLDIESMTIEDEYSGPKLEDGKVTISFMKELMQWYKDQKKLHRKCAYQILVQVKEVLSKLSTLVETTLKETEKITVCGDTHGQFYDLLNIFELNGLPSETNPYIFNGDFVDRGSFSVEVILTLFGFKLLYPDHFHLLRGNHETDNMNQIYGFEGEVKAKYTAQMYELFSEVFEWLPLAQCINGKVLIMHGGLFSEDGVTLDDIRKIERNRQPPDSGPMCDLLWSDPQPQNGRSISKRGVSCQFGPDVTKAFLEENNLDYIIRSHEVKAEGYEVAHGGRCVTVFSAPNYCDQMGNKASYIHLQGSDLRPQFHQFTAVPHPNVKPMAYANTLLQLGMM
B6: SERBP1 (protein, UniProt Q8NC51 2-408, looked up)
SERPINE1 mRNA-binding protein …: PGHLQEGFGCVVTNRFDQLFDDESDPFEVLKAAENKKKEAGGGGVGGPGAKSAAQAAAQTNSNAAGKQLRKESQKDRKNPLPPSVGVVDKKEETQPPVALKKEGIRRVGRRPDQQLQGEGKIIDRRPERRPPRERRFEKPLEEKGEGGEFSVDRPIIDRPIRGRGGLGRGRGGRGRGMGRGDGFDSRGKREFDRHSGSDRSSFSHYSGLKHEDKRGGSGSHNWGTVKDELTESPKYIQKQISYNYSDLDQSNVTEETPEGEEHHPVADTENKENEVEEVKEEGPKEMTLDEWKAIQNKDRAKVEFNIRKPNEGADGQWKKGFVLHKSKSEEAHAEDSVMDHHFRKPANDITSQLEINFGDLGRPGRGGRGGRGGRGRGGRPNRGSRTDKSSASAPDVDDPEAFPALA
B7: PPP2R1B (protein, UniProt P30154 2-601, looked up)
Serine/threonine-protein …: AGASELGTGPGAAGGDGDDSLYPIAVLIDELRNEDVQLRLNSIKKLSTIALALGVERTRSELLPFLTDTIYDEDEVLLALAEQLGNFTGLVGGPDFAHCLLPPLENLATVEETVVRDKAVESLRQISQEHTPVALEAYFVPLVKRLASGDWFTSRTSACGLFSVCYPRASNAVKAEIRQQFRSLCSDDTPMVRRAAASKLGEFAKVLELDSVKSEIVPLFTSLASDEQDSVRLLAVEACVSIAQLLSQDDLETLVMPTLRQAAEDKSWRVRYMVADRFSELQKAMGPKITLNDLIPAFQNLLKDCEAEVRAAAAHKVKELGENLPIEDRETIIMNQILPYIKELVSDTNQHVKSALASVIMGLSTILGKENTIEHLLPLFLAQLKDECPDVRLNIISNLDCVNEVIGIRQLSQSLLPAIVELAEDAKWRVRLAIIEYMPLLAGQLGVEFFDEKLNSLCMAWLVDHVYAIREAATNNLMKLVQKFGTEWAQNTIVPKVLVMANDPNYLHRMTTLFCINALSEACGQEITTKQMLPIVLKMAGDQVANVRFNVAKSLQKIGPILDTNALQGEVKPVLQKLGQDEDMDVKYFAQEAISVLALA
B8: PPP2R2A (protein, UniProt P63151 2-447, looked up)
Serine/threonine-protein …: AGAGGGNDIQWCFSQVKGAVDDDVAEADIISTVEFNHSGELLATGDKGGRVVIFQQEQENKIQSHSRGEYNVYSTFQSHEPEFDYLKSLEIEEKINKIRWLPQKNAAQFLLSTNDKTIKLWKISERDKRPEGYNLKEEDGRYRDPTTVTTLRVPVFRPMDLMVEASPRRIFANAHTYHINSISINSDYETYLSADDLRINLWHLEITDRSFNIVDIKPANMEELTEVITAAEFHPNSCNTFVYSSSKGTIRLCDMRASALCDRHSKLFEEPEDPSNRSFFSEIISSISDVKFSHSGRYMMTRDYLSVKIWDLNMENRPVETYQVHEYLRSKLCSLYENDCIFDKFECCWNGSDSVVMTGSYNNFFRMFDRNTKRDITLEASRENNKPRTVLKPRKVCASGKRKKDEISVDSLDFNKKILHTAWHPKENIIAVATTNNLYIFQDKVN

Tests used:
[1] = tested on: Hsp90 complexes in K562 cell extract; assay: Nano-LC-MS/MS of PU-beads pull-downs; assay type: binding; settings: protein identified in PU-beads pull-down of K562 extract, QSTAR-Elite QTof MS
Summary of the method: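 Proteins were identified by data-dependent nano LC-MS/MS (QTof, ESI) and Mascot searching (p<0.05), then reported as spectral counts and coverage via Scaffold. Inputs were PU-bead versus control-bead pull-downs from lysate pre-cleared with control beads overnight at 4 °C, eluted by boiling in 2% SDS.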

[2] = tested on: Hsp90 complexes in Mia-PaCa-2 cell extract; assay: Nano-LC-MS/MS of PU-beads pull-downs; assay type: binding, human; settings: protein identified in PU-beads pull-down of Mia-Paca 2 extract; QSTAR-Elite QTof MS
Summary of the method: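 They came from PU-bead pull-downs of pre-cleared lysates (control beads, overnight, 4 °C), eluted by boiling in 2% SDS, gel-separated and run by data-dependent nano-ESI QTof MS/MS.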

Molecule	Number of Assigned Spectra, K562 Prep 1 [1]	Number of Assigned Spectra, K562 Prep 2 [1]	Number of Assigned Spectra, Mia-Paca 2 [2]
B1	8	4	4
B2	25	16	20
B3	14	12	3
B4	0	0	3
B5	3	1	0
B6	0	6	16
B7	3	2	0
B8	9	1	5
